Measurements published in the supplement of paper PMC8728848.
This is one part of the list.

Assays:
Assay in all cases: glycan array binding signal (z-score within array); higher = stronger binding
Details in all cases: glycan notation: IUPAC condensed, linker removed
[1] = target: GlcNAc(b1-3)Gal(b1-4)GlcNAc(b1-3)Gal(b1-4)GlcNAc(b1-3)GalNAc
Method in brief: (§1)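 Glycan array data came from 3228 arrays in the Consortium for Functional Glycomics database, and only arrays with an available protein sequence were kept. Glycan names were put into IUPAC-condensed notation, and columns mapping to the same glycan were averaged. The binding signal is a within-array Z-score, averaged across arrays of one protein sequence run at different concentrations or buffers and across linkers. A negative Z-score can be read as non-binding.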

[2] = target: GlcNAc(b1-3)Gal(b1-4)GlcNAc(b1-3)GalNAc
Method in brief: as §1

[3] = target: GlcNAc(b1-3)Gal(b1-4)GlcNAc(b1-3)[GlcNAc(b1-3)Gal(b1-4)GlcNAc(b1-3)]GalNAc
Method in brief: as §1

[4] = target: GlcNAc(b1-3)Gal(b1-4)GlcNAc(b1-6)[Gal(b1-3)]GalNAc
Method in brief: as §1

[5] = target: GlcNAc(b1-3)Gal(b1-4)GlcNAc(b1-6)[GlcNAc(b1-3)Gal(b1-3)]GalNAc
Method in brief: as §1

[6] = target: GlcNAc(b1-3)Gal(b1-4)GlcNAc(b1-6)[GlcNAc(b1-3)]Gal(b1-4)GlcNAc
Method in brief: as §1

[7] = target: GlcNAc(b1-3)GalNAc
Method in brief: as §1

[8] = target: GlcNAc(b1-3)Man
Method in brief: as §1

[9] = target: GlcNAc(b1-3)[GlcNAc(b1-4)][GlcNAc(b1-6)]GlcNAc
Method in brief: as §1

[10] = target: GlcNAc(b1-3)[GlcNAc(b1-6)]Gal(b1-4)GlcNAc
Method in brief: as §1

[11] = target: GlcNAc(b1-3)[GlcNAc(b1-6)]GalNAc
Method in brief: as §1

[12] = target: GlcNAc(b1-4)Gal(b1-4)GlcNAc
Method in brief: as §1

[13] = target: GlcNAc(b1-4)GlcNAc
Method in brief: as §1

[14] = target: GlcNAc(b1-4)GlcNAc(b1-4)GlcNAc
Method in brief: as §1

[15] = target: GlcNAc(b1-4)GlcNAc(b1-4)GlcNAc(b1-4)GlcNAc(b1-4)GlcNAc
Method in brief: as §1

[16] = target: GlcNAc(b1-4)GlcNAc(b1-4)GlcNAc(b1-4)GlcNAc(b1-4)GlcNAc(b1-4)GlcNAc
Method in brief: as §1

[17] = target: GlcNAc(b1-4)[GlcNAc(b1-6)]GalNAc
Method in brief: as §1

[18] = target: GlcNAc(b1-6)Gal(b1-4)GlcNAc
Method in brief: as §1

[19] = target: GlcNAc(b1-6)GalNAc
Method in brief: as §1

[20] = target: GlcNAc6S(b1-3)Gal(b1-4)GlcNAc
Method in brief: as §1

[21] = target: Kdn(a2-3)Gal(b1-3)GalNAc
Method in brief: as §1

[22] = target: Kdn(a2-3)Gal(b1-3)GlcNAc
Method in brief: as §1

[23] = target: Kdn(a2-3)Gal(b1-4)Glc
Method in brief: as §1

[24] = target: Kdn(a2-3)Gal(b1-4)GlcNAc
Method in brief: as §1

[25] = target: Kdn(a2-3)Gal(b1-4)[Fuc(a1-3)]GlcNAc
Method in brief: as §1

[26] = target: Kdn(a2-6)Gal(b1-4)GlcNAc
Method in brief: as §1

[27] = target: Man(a1-2)Man(a1-2)Man(a1-3)Man
Method in brief: as §1

[28] = target: Man(a1-2)Man(a1-2)Man(a1-6)[Man(a1-3)]Man
Method in brief: as §1

[29] = target: Man(a1-2)Man(a1-3)Man
Method in brief: as §1

[30] = target: Man(a1-2)Man(a1-3)[Man(a1-2)Man(a1-6)]Man
Method in brief: as §1

[31] = target: Man(a1-2)Man(a1-3)[Man(a1-2)Man(a1-6)]Man(a1-6)[Man(a1-2)Man(a1-2)Man(a1-3)]Man
Method in brief: as §1

[32] = target: Man(a1-2)Man(a1-3)[Man(a1-2)Man(a1-6)]Man(a1-6)[Man(a1-2)Man(a1-2)Man(a1-3)]Man(b1-4)GlcNAc(b1-4)GlcNAc
Method in brief: as §1

[33] = target: Man(a1-2)Man(a1-3)[Man(a1-6)]Man(a1-6)[Man(a1-2)Man(a1-3)]Man(b1-4)GlcNAc(b1-4)GlcNAc
Method in brief: as §1

[34] = target: Man(a1-2)Man(a1-6)[Man(a1-3)]Man(a1-6)[Man(a1-2)Man(a1-2)Man(a1-3)]Man
Method in brief: as §1

[35] = target: Man(a1-2)Man(a1-6)[Man(a1-3)]Man(a1-6)[Man(a1-2)Man(a1-2)Man(a1-3)]Man(b1-4)GlcNAc(b1-4)GlcNAc
Method in brief: as §1

[36] = target: Man(a1-3)[Man(a1-6)]Man
Method in brief: as §1

[37] = target: Man(a1-3)[Man(a1-6)]Man(a1-6)[Man(a1-2)Man(a1-3)]Man(b1-4)GlcNAc(b1-4)GlcNAc
Method in brief: as §1

B1: TAL6-4LysM (Trichoderma atroviride) (protein)
chain: AADSIPSISPTGIITPTPTQSGMVSNCNKFYDVHSNDGCSAIASSQHVDLSSLYKWNPAIKTDCSGLQASVYVCIGILTTSMSTTSKLPTTTSKPSTTSKPPTGITTPTPTQSGMVKNCNKFYDVHSGDGCSAIASSQKVNLSSFYLWNPAVKTDCSGLQASVFVCIGTLTTSMSTTTSKLPTTTSKPSTTSKPPTGIITPTPTQNGMVKNCNKFYDVHSGDGCSAIASSQKVNLSSFYLWNPAVKTDCSGLQASVFVCVGTATTTTAAGITTPTPTQSGMVSGCNKFYDVHAGDGCSAIASSQKIALSSLYKWNPAVKTDCSGLQASVYICIGVGNAAAARVTGALEQKLISEEDLNSAVDHHHHHH
- glycan array binding signal (z-score) [1]: 0.581
- glycan array binding signal (z-score) [2]: -0.866
- glycan array binding signal (z-score) [3]: -0.152
- glycan array binding signal (z-score) [4]: 0.586
- glycan array binding signal (z-score) [5]: -0.887
- glycan array binding signal (z-score) [6]: -0.091
- glycan array binding signal (z-score) [7]: -0.74
- glycan array binding signal (z-score) [8]: 0.386
- glycan array binding signal (z-score) [9]: 0.432
- glycan array binding signal (z-score) [10]: 0.229
- glycan array binding signal (z-score) [11]: -0.105
- glycan array binding signal (z-score) [12]: 0.158
- glycan array binding signal (z-score) [13]: -0.601
- glycan array binding signal (z-score) [14]: -1.67
- glycan array binding signal (z-score) [15]: 1.44
- glycan array binding signal (z-score) [16]: -0.051
- glycan array binding signal (z-score) [17]: 0.968
- glycan array binding signal (z-score) [18]: -0.939
- glycan array binding signal (z-score) [19]: -0.418
- glycan array binding signal (z-score) [20]: 0.39
- glycan array binding signal (z-score) [21]: -1.56
- glycan array binding signal (z-score) [22]: 0.51
- glycan array binding signal (z-score) [23]: 0.121
- glycan array binding signal (z-score) [24]: 0.4
- glycan array binding signal (z-score) [25]: -0.467
- glycan array binding signal (z-score) [26]: -0.602
- glycan array binding signal (z-score) [27]: -0.593
- glycan array binding signal (z-score) [28]: 0.189
- glycan array binding signal (z-score) [29]: -1.23
- glycan array binding signal (z-score) [30]: 0.035
- glycan array binding signal (z-score) [31]: 0.042
- glycan array binding signal (z-score) [32]: -0.832
- glycan array binding signal (z-score) [33]: 0.6
- glycan array binding signal (z-score) [34]: 1.38
- glycan array binding signal (z-score) [35]: -1.15
- glycan array binding signal (z-score) [36]: 3.24
- glycan array binding signal (z-score) [37]: -1.28
